This is a selection; strong and weak results do not stand in their true shares. At the low end of the ranking the order means little. The list shows a part of the results.
Columns and labels:
Test in all cases: SELEX-seq (CSI, HT-SELEX, round 3)
Conditions in all cases: SELEX-seq: 1x PBS (10 mM phosphate, 137 mM NaCl, 2.7 mM KCl) pH 7.6, 2.5 mM DTT, 50 ng/ul poly dI-dC, 0.1% BSA, 50 nM biotinylated bZIP (1:3 with partner for …); high values mean tight binding; double strand, one strand shown
[1] = tested on: MAFB + MAFB
[2] = tested on: T1, CREB3L1 + CREB3L1
T1 sequence 1: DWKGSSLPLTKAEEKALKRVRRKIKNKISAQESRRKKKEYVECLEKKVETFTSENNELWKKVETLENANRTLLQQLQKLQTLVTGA
T1 sequence 2: T1 sequence 1

[3] = tested on: ATF6B + ATF6B
[4] = tested on: ATF6 + ATF6
[5] = tested on: T2, CREB1 + CREB1
T2 sequence 1: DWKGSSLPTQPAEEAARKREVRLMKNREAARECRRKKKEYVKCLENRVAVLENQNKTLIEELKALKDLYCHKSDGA
T2 sequence 2: T2 sequence 1

[6] = tested on: T3, CREB3 + CREB3
T3 sequence 1: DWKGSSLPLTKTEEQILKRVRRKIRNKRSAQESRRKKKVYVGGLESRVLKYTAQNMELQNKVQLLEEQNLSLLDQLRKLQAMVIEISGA
T3 sequence 2: T3 sequence 1

[7] = tested on: MAFG + MAFG
[8] = tested on: MAFB + FOSL1
[9] = tested on: MAFB + ATF5
[10] = tested on: ATF5 + ATF6B

Row | Sequence | binding signal (relative CSI intensity (max = 1)) [1] | binding signal (relative CSI intensity (max = 1)) [2] | binding signal (relative CSI intensity (max = 1)) [3] | binding signal (relative CSI intensity (max = 1)) [4] | binding signal (relative CSI intensity (max = 1)) [5] | binding signal (relative CSI intensity (max = 1)) [6] | binding signal (relative CSI intensity (max = 1)) [7] | binding signal (relative CSI intensity (max = 1)) [8] | binding signal (relative CSI intensity (max = 1)) [9] | binding signal (relative CSI intensity (max = 1)) [10]
1 | ATGATGCAAT | -2.19e-05 | -6.68e-05 | -0.000145 | 0.000181 | 6.41e-05 | -0.00583 | – | – | – | –
2 | ATGACGCAAT | -7.64e-05 | 0.000144 | 0.00034 | – | 0.000887 | – | 0.000738 | – | – | –
3 | CCTGACGTCA | -0.000208 | 7.6e-05 | – | – | – | – | -0.00283 | – | – | –
4 | ATGACGTAAT | -9.67e-05 | 0.000769 | – | – | 0.00977 | – | – | – | – | –
5 | ATGACGTCAT | 7.73e-05 | – | 0.0846 | – | 0.577 | 0.325 | – | – | – | –
6 | ATGACGGAAT | -0.000156 | -0.000197 | -2.27e-05 | -6.75e-05 | 6.15e-05 | -0.00282 | 0.00454 | -5.39e-05 | 0.000305 | -0.0011

Source: PMC5349851
